No constants are given. Whether binding was seen depends on the method and setting. Some binding calls cover weakened binding; strength is not graded here. Sequences can lack the tags named with a protein.

The assay concerns the target MeGBSSI, yeast two-hybrid fusion (cassava (Manihot esculenta)) (UniProt Q43784). In words: two-hybrid.

B1: MeGBSSI, yeast two-hybrid fusion (enzyme, UniProt Q43784 1-608)
chain: MATVIAAHFVSRSSHLSIHALETKANNLSHTGPWTQTITPNGLRSLNTMDKLQMKTQSKAVKKVSATGNGRPAAKIICGHGMNLIFVGAEVGPWSKTGGLGDVLGGLPPAMAARGHRVMTVSPRYDQYKDAWDTSVSVEIKIGDRIETVRFFHSYKRGVDRVFVDHPMFLEKVWGKTGSKIYGPRAGLDYQDNQLRFSLLCLAALEAPRVLNLNSSKNFSGPYGEEVAFIANDWHTALLPCYLKAIYQPMGIYKHAKVAFCIHNIAYQGRFAFSDFPRLNLPDKFKSSFDFIDGYEKPVKGRKINWMKAGILESDRVLTVSPYYAQEVISGVERGVELDNFIRKTGIAGIINGMDVQEWNPVTDKYIDIHYDATTVMDAKPLLKEALQAEVGLPVDRNVPLIGFIGRLEEQKGSDIFVAAISQLVEHNVQIVILGTGKKKFEKQIEHLEVLYPDKARGVAKFNVPLAHMITAGADFMLVPSRFEPCGLIQLHAMRYGTVPIVASTGGLVDTVKEGYTGFQMGALHVECDKIDSADVAAIVKTVARALGTYATAALREMILNCMAQDLSWKGPARMWEKMLLDLEVTGSEPGTEGEEIAPLAKENVPTP
Take B1: the binding result is on record as “binds”.

These data come from publication doi:10.1101/2020.03.25.006957.
